# PubChem BioAssay AID1508600 (Functional Genomics Laboratory (NCATS/FGL), 2020)
# The whole screen tested about 53,000 sequences, of which about 3,700 (7%) were called active.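 How the source made its calls: active means gene knockdowns whose robust z-score for IL-1 alpha signal is at least 2 or at most -2, so actives lie on both sides; inactive means the rest.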 The list shows a part of the results.
# Experiment: Components of the Cytosolic LPS Sensing Pathway: Gene Identification via Genome-wide siRNA Screen;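 further: robust z of the log signal after scaling to non-targeting control siRNA wells of the plate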
# Settings: RAW264.7 macrophages, IL-1a HTRF, actives lie on both sides, screened at 100 nM (by protocol), cells primed 5 h with Pam3CSK4 first
# How it was run: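 Cells (RAW264.7, 1×10^4 per well) were transfected with siRNA at 100 nM and cultured 48h at 37 degrees C. Pam3CSK4 was added for 5 hours; LipidA transfection followed for 24 hour. IL-1a was then measured by HTRF.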
row,Sequence,z-score
1,GGUUUUUGUGGCUGAUCUUTT against Zfp711,inactive: -0.545
2,GGUUAUGAUCGGCAUCGCUTT against Fam24a,inactive: -1.46
3,GGAAUUCAUGAAGUAUAACTT against Myo5c,inactive: 0.941
4,GCUGUGACUCUACUGGAGGTT against Zfp397,inactive: 0.746
5,GCAGUCGAGAUCAAACAGGTT against Crabp2,inactive: -0.302
6,GGGUUUUCUAACAUUCAAATT against Pigm,inactive: -0.313
7,GGAAGAAGAAAAGAAAGACTT against Gphn,inactive: -0.472
8,GGAGACCGUAGUGUUCAUCTT against Lypd4,inactive: -0.107
9,GGCCAUGGCAGCUUAGAUUTT against St8sia1,inactive: 0.441
10,GGAAAUGUGCUUUAUUCGUTT against Tktl1,inactive: 1.75
11,CCUUUUUCGAAAAAUCAGGTT against Lyst,inactive: -0.39
12,GGCAAGUUCAAUAAAAUGUTT against Bik,inactive: 0.818
13,GGAUCUUCCAAGUUGUCUGTT against Srm,active: 2.42
14,CCACUGGUCAUUCUUGCUUTT against Olfr228,inactive: 0.248
15,GGUGGAUGAAGACUACAUCTT against Csnk2b,inactive: 1.35
16,CGACCUUAAGCUAAGCAGUTT against Aff3,inactive: 1.18
17,GGAGAAGAAAAAGAUUAUCTT against Atp6v1d,inactive: 1.07
18,GGAAGAGUGACCUUAAGUCTT against Arhgap30,active: 2.29
19,CGGUUCUCUAAAUGGCUCATT against Rhox12,inactive: -1.83
20,GGUGGAGUCAGUAUAAAUCTT against Yars2,inactive: 1.01
21,GGGUUCUCUAUAUCACAGGTT against Mrgpra3,inactive: 0.000381
22,CGCAGACGUACAAGUCUCATT against 1700018B24Rik,inactive: 0.157
23,GGUGACCUUGAACAAGCCCTT against Odf3,inactive: 0.977

# A second format for some results above.
row | Sequence | z-score
20 | GGUGGAGUCAGUAUAAAUCTT against Yars2 | inactive: 1.01
21 | GGGUUCUCUAUAUCACAGGTT against Mrgpra3 | inactive: 0.000381

# (further entries)

row,Sequence,z-score
1,GCCGGUCCUCUCUUACUACTT against Irs1,inactive: 0.385
2,CGAACACCGGUUACAAACUTT against Odf3b,inactive: 0.437
3,GGAGUCUUGGAAAAAAGGCTT against Rep15,inactive: -1.65
4,GGAAGAAUAUUGGCCCUGUTT against Il17rd,inactive: 0.0647
5,GGCAUUGACACAAGGGAUGTT against Olfr975,inactive: -0.319
6,CCCUCUGUGGUUAAAGACUTT against Tctex1d2,active: -2.88
7,GCGACGGCUUAUAUGGGUUTT against Lypd9,inactive: 1.25
8,GGGCUACUACAAUGAGUACTT against Phospho1,inactive: 0.412
9,GGUGUUACCAAGAGUGACUTT against Trp53i13,inactive: -0.653
10,CGAACCAGGAAAUGGAUUCTT against Crhbp,inactive: 0.598
11,GGUUACCAGUUAUAUGGCGTT against Mccc2,inactive: -0.601
12,AUUCGGGAAAAUUUUAGACTT against Rbfox3,inactive: -0.171
13,GCUGUGGAGAAGUGCUACUTT against Lce1b,inactive: -0.907
14,GCCAGGUGGAACCAAGUAUTT against Zcchc17,inactive: -1.67
15,GCGUUGAUUGUCCUCCUGATT against Cbarp,inactive: 0.127
16,GCAGUCAUCAAGGAUCAUUTT against Cyb5r4,inactive: 0.118
17,GAAGAUCUUUCCCAUGGGUTT against Psmb3,inactive: -0.972
18,GGUCUAGCUGCAUUGUUUGTT against Lgals8,inactive: 0.0629
19,CCUUCGACUAUUCUUACUGTT against Kif1c,inactive: -0.11
20,GGUGGAAUUUUUGUUUGAUTT against Skint2,inactive: 0.442
21,CCGAGAGGAUCGUAUAUCATT against Plcg1,inactive: -0.682
22,GACAUACACCUCACCUUGUTT against Hoxa6,inactive: -0.928
23,GGAUCGAGCCAAGAGCUGUTT against Rnd2,inactive: -0.105

row,Sequence,z-score
1,CCAAUUUGUCAAAACAAUCTT against Slit2,inactive: 0.681
2,CGAACUCGAAUGCUAACGCTT against Nomo1,inactive: -1.52
3,GGACCAUAGAUAUUCUAGATT against Zfp709,inactive: -0.756
4,GCUCUUUAUAGGGUUCGGATT against Mgat5b,inactive: -0.036
5,GCUGACUCUUAGAUAAAUATT against Seh1l,inactive: -0.81
6,GGCUGCAUGUGCUCUGUUATT against Slfn9,inactive: 0.695
7,GGAAUCCUGGUGCUGAUUATT against Urm1,inactive: 1.6
8,GGAUCAGCUGUUGCCAGAGTT against Zfp384,inactive: 0.806
9,GUCCAGUAACAUGCAUGAGTT against Defb6,inactive: -0.419
10,GCCUGUUCGGUGUUCAACUTT against Etv3,inactive: 0.808
11,GGUCAAUCAGUUAUAAGCUTT against Psrc1,inactive: -0.592
12,GCACAGUGGUGUUAAAUAGTT against 2510009E07Rik,inactive: -0.79
13,GGAGAUCAGGCUGUUCACATT against Mei1,inactive: -0.172
14,GCUUAAGGUUAUUUGCUUGTT against Cct7,inactive: 0.301
15,GGAACAUCCAGUCUCUCACTT against Fbxo31,inactive: 0.244
16,GGACAAGGUGGAUAAAAGUTT against Cttn,inactive: 0.789
17,GGCAGACCCUGUGAAUAUATT against Ccn1,inactive: -1.99
18,GGUAGAUCCAGUGUUUACATT against Glt1d1,inactive: -0.17
19,ACAGAUUUUACUUUAACAUTT against Olfr1228,inactive: 1.54
20,GCAUGUCCCAUCAAUGGUCTT against Akr1d1,inactive: -0.0568
21,GGAUUUGAUGAUCUUUCCUTT against Pstk,inactive: 0.952
22,GGAACUUCAUUGAACUAUGTT against Trmt2b,inactive: -0.363

# Pulled one by one from the list above:
row,Sequence,z-score
6,GGCUGCAUGUGCUCUGUUATT against Slfn9,inactive: 0.695
4,GCUCUUUAUAGGGUUCGGATT against Mgat5b,inactive: -0.036
